In PMC5853860:
These are yes or no findings as the source states them, for the method shown. Binding seen in cells or lysates may run through a third protein. These calls come from enrichment with a bait or labelling near it, and not all partners need be listed.

Biological target: OsCV-GFP (CHLOROPLAST VESICULATION of rice fused to GFP) (Oryza sativa)
Experiment: affinity purification with mass spectrometry; anti-GFP magnetic beads (µMACS GFP Isolation Kit) incubated with shoot lysate of 1-week-old rice seedlings at 4 °C for 4 h; seedlings cultured with 20 µM β-estradiol or DMSO for 24 h; LC-MS/MS

B1: chloroplastic (stromal) glutamine synthetase 2 (enzyme, UniProt P14655 49-428)
chain: VSTETTGVVTRMEQLLNMDTTPFTDKIIAEYIWVGGTGIDLRSKSRTISKPVEDPSELPKWNYDGSSTGQAPGEDSEVILYPQAIFKDPFRGGNNILVMCDTYTPAGEPIPTNKRNRAAQVFSDPKVVSQVPWFGIEQEYTLLQRDVNWPLGWPVGGYPGPQGPYYCAVGSDKSFGRDISDAHYKACLYAGINISGTNGEVMPGQWEYQVGPSVGIEAGDHIWISRYILERITEQAGVVLTLDPKPIQGDWNGAGCHTNYSTKSMREDGGFEVIKKAILNLSLRHDLHISAYGEGNERRLTGLHETASIDNFSWGVANRGCSIRVGRDTEAKGKGYLEDRRPASNMDPYVVTALLAETTILWEPTLEAEVLAAKKLALKV
binding: binds
